Test results reported in PubChem BioAssay AID651768 (National Center for Advancing Translational Sciences (NCATS), 2012).
About 1,700 (0.47%) of roughly 360,000 compounds were called active. Inconclusive means that the source gave no clear call. Such entries were picked first, then a sample of the others. The call rests on the fitted dose curve; in most records, active means well fitted inhibition curve with a large enough effect; inconclusive means small, poorly fitted or top-dose-only effect; inactive means no such curve, though single readings can be large or run the other way. Potencies beside an inconclusive call are fits to weak or partial responses and may not hold up.

Chains of the proteins cited; added tags and fusions are not shown.
UniProt Q14191, whole entry, looked up: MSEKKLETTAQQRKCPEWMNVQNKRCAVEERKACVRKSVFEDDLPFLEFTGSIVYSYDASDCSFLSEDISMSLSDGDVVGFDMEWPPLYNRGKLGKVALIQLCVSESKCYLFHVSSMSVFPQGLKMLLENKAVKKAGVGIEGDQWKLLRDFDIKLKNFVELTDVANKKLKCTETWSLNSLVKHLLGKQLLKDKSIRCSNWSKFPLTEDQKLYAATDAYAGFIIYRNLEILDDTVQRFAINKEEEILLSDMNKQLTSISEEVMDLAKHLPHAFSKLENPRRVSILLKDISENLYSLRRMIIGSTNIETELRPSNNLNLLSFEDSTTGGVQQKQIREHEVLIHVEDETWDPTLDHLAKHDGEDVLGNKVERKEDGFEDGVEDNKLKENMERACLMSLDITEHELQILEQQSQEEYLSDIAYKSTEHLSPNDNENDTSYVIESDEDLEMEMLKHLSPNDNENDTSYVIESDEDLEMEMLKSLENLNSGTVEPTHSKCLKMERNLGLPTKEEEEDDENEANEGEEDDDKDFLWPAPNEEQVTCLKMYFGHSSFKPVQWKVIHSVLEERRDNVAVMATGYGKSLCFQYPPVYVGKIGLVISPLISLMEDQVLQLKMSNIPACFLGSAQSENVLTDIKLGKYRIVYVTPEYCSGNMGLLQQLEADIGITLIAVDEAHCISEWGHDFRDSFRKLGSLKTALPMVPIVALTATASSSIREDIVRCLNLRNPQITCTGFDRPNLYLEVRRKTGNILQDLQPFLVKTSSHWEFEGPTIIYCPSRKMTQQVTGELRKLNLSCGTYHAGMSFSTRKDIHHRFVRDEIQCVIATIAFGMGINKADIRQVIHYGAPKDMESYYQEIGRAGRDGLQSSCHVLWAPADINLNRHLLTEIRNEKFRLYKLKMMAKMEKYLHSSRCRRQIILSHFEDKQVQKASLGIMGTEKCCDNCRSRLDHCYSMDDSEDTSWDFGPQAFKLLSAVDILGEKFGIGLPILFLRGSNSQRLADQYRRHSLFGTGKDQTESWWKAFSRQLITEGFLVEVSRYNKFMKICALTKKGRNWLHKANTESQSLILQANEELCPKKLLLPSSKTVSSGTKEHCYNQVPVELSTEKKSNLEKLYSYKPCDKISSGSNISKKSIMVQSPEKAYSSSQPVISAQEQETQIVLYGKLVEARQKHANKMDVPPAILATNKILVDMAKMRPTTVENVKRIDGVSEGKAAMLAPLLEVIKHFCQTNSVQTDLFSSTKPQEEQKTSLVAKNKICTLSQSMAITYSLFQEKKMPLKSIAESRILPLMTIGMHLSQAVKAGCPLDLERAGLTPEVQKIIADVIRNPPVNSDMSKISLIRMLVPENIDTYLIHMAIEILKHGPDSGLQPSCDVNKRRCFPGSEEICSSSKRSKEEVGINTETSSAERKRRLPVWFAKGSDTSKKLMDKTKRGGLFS

The compounds below were run against Bifunctional 3'-5' exonuclease/ATP-dependent helicase WRN (Homo sapiens) (UniProt Q14191) (assay: qHTS for Inhibitors of WRN Helicase). Conditions: WRN helicase unwinding, fluorescent forked duplex, kinetic; activity change, negative = inhibition: at 114 µM (top of the series) unless noted.
In short: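 Fluorescence dequenching readout, ex 525 nm/em 598 nm, kinetic mode: forked duplex DNA (100 nM final) with adjacent fluorophore and quencher unwound by WRN (20 nM final) with 2 mM ATP. Compound preincubation 15 min, room temperature.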
Further: nearly all actives have a fitted effect of over 55% in size.
On the % scale 0 is the no-effect control and ±100 the full control effect; potency means the concentration at half of the fitted maximal effect.

Which “activity change, negative = inhibition” value does the source give for `O=C(C1CCCN(CCCc2ccccc2)C1)N1CCCCCC1` (configuration not stated) here?
The value was inactive: -27.9% [at 57.1 µM].

With `Cc1cccc(Nc2nnc(SCC3CCCCO3)s2)c1` (configuration not stated) as the compound, how does the Potency read?
The Potency was inconclusive: 39.8 µM [inhibitor, single point].

With `COc1ccc(C(=O)CSc2nnc(CNc3nc(-c4ccccc4)cs3)n2C)cc1` as the compound, how does the Potency read?
Its Potency is inconclusive: 31.6 µM [inhibitor, partial curve, poor fit].

Which Potency does the source give for `Cn1cccc1CC(=O)N/N=C/C=C/c1ccco1` here?
Its Potency is inconclusive: 63.1 µM [inhibitor, partial curve, poor fit].

`CCn1c(C)nc2cc(C(=O)N/N=C/c3cccc(OC)c3O)ccc21` was tested. Which “activity change, negative = inhibition” value did it give?
The value was inactive: -21.1%.

How did the Potency turn out when `O=C1/C(=C/c2ccncc2)CCC/C1=C\c1ccncc1` was run?
Its Potency is inconclusive: 50.1 µM [inhibitor, partial curve].

For `CCc1ccc(N=C2NC(=O)/C(=C/c3ccc(OCC(=O)O)c(OC)c3)S2)cc1`, which Potency is on record?
The Potency was inconclusive: 2.38 µM [inhibitor, partial curve].

For `O=C1OC(c2cccs2)=N/C1=C/c1ccc(-c2cccc(C(=O)O)c2)o1`, which Potency is on record?
Its Potency is inconclusive: 2.67 µM [inhibitor, partial curve].

How did the Potency turn out when `CCN(C(=O)COC(=O)C(C)(C)Oc1ccc(Cl)cc1)c1c(N)n(Cc2ccccc2)c(=O)[nH]c1=O` was run?
The Potency was inconclusive: 22.4 µM [inhibitor, single point].

How did the “activity change, negative = inhibition” value turn out when `CC(=O)Oc1oc(-c2ccccc2)nc1C=Nc1ccccc1` was run?
The value was inactive: -39.3%.

For `C=CS(=O)(=O)c1ccc(Oc2ccc(S(=O)(=O)C=C)cc2)cc1`, which Potency is on record?
The Potency was inconclusive: 28.2 µM [inhibitor, single point].

For `COc1cc2ccccc2cc1C(=O)NC(=S)Nc1cccc(C(=O)O)c1`, which Potency is on record?
The Potency was inconclusive: 28.2 µM [inhibitor, partial curve].

Which “activity change, negative = inhibition” value does the source give for `CCCCOc1ccc(SCCCN2CCOCC2)cc1` here?
The value was inactive: -23.5%.

How did the “activity change, negative = inhibition” value turn out when `O=c1[nH]cnc2scc(-c3ccc(F)cc3)c12` was run?
The value was inactive: -8.49%.

For `COCCN=c1scc(-c2ccc3c(c2)NC(=O)CO3)n1/N=C(\C)c1ccc(O)cc1`, which Potency is on record?
The Potency was inconclusive: 89.1 µM [inhibitor, single point].

With `COC(=O)C1=C(C)N(Cc2ccco2)C(=O)C1` as the compound, how does the “activity change, negative = inhibition” value read?
The value was inactive: -34.8% [at 57.1 µM].

For `CCn1c(SCC(=O)Nc2cccc(NC(=O)c3cccs3)c2)nnc1-c1ccncc1`, which activity change, negative = inhibition is on record?
The activity change, negative = inhibition was inconclusive: -42.1% [inhibitor] [at 57.1 µM].

`CCN(CCCCN1C(=O)c2ccccc2C1=O)c1ccc2c(c1)C(=O)N(C)C2=O` was tested. Which Potency did it give?
The Potency was inconclusive: 56.2 µM [inhibitor, partial curve].

With `CCOC(=O)NNc1ccc2nonc2c1[N+](=O)[O-]` as the compound, how does the Potency read?
Its Potency is active: 50.1 µM.

With `O=C(Nc1cc(S(=O)(=O)N2CCOCC2)ccc1N1CCOCC1)c1cccs1` as the compound, how does the “activity change, negative = inhibition” value read?
Its value is inactive: 5.5%.

With `Cc1[nH]c2ccccc2c1/C=N/Nc1cccc(C(=O)O)c1` as the compound, how does the “activity change, negative = inhibition” value read?
The value was inactive: -12.3%.

`O=C(Nc1ccccc1)C1=C[C@@H](c2ccccc2)C[C@@H](OCc2ccc(CO)cc2)O1` was tested. Which “activity change, negative = inhibition” value did it give?
Its value is inactive: -2.55%.

With `CC(C)c1ccc(S(=O)(=O)/N=C2/C=C(Sc3ncn[nH]3)C(=O)c3ccccc32)cc1` as the compound, how does the Potency read?
Its Potency is active: 31.6 µM.

How did the Potency turn out when `COc1cccc(/C=N/Nc2ncnc3c2[nH]c2ccc(C)cc23)c1OC` was run?
The Potency was inconclusive: 25.1 µM [inhibitor, partial curve, poor fit].

Which “activity change, negative = inhibition” value does the source give for `CCSc1nc(O)cc(=O)[nH]1` here?
Its value is inactive: 0.345%.

Which “activity change, negative = inhibition” value does the source give for `COc1ccc(C(=O)N/N=C/c2ccc(OC)c(COc3ccccc3)c2)cc1` here?
The value was inactive: -8.93%.

For `COc1ccc(NC(=O)c2cc(-c3ccco3)nc3ccccc23)cc1S(=O)(=O)N1CCOCC1`, which Potency is on record?
Its Potency is inconclusive: 44.7 µM [inhibitor, partial curve].

For `CCOc1ccc(C=NNc2ccc(S(=O)(=O)Nc3ccccc3C(=O)O)cc2[N+](=O)[O-])cc1OC`, which Potency is on record?
The Potency was inconclusive: 50.1 µM [inhibitor, partial curve].

Which Potency does the source give for `O=C(COC(=O)CCOc1ccccc1)NCc1ccco1` here?
Its Potency is inconclusive: 100 µM [inhibitor, partial curve, poor fit].

How did the “activity change, negative = inhibition” value turn out when `O=C1CCCC2=C1C(c1ccc(Br)cc1)c1c([nH]c(=S)[nH]c1=O)N2` (configuration not stated) was run?
Its value is inactive: -2.72%.

How did the “activity change, negative = inhibition” value turn out when `CCCC(=O)OCCNc1cc(Sc2nccn2C)c2nonc2c1[N+](=O)[O-]` was run?
The value was inactive: -33.4%.

Which Potency does the source give for `CCCCNC(C(=O)Nc1ccc([N+](=O)[O-])cc1Br)c1ccccc1` (configuration not stated) here?
The Potency was inconclusive: 35.5 µM [inhibitor, full curve].

How did the Potency turn out when `O=C(O)c1cc(-c2ccc3c(c2)OCO3)nc2ccc(Cl)cc12` was run?
The Potency was inconclusive: 39.8 µM [inhibitor, partial curve].

Which Potency does the source give for `CCC(CC)N1CCN(CC2CC=CCC2)CC1` (configuration not stated) here?
The Potency was inconclusive: 39.8 µM [inhibitor, single point].

With `COC1=CC(=Cc2c(N)n3nc(CC(=O)N4CCOCC4)sc3nc2=O)C=C(OC)C1=O` as the compound, how does the Potency read?
The Potency was inconclusive: 22.4 µM [inhibitor, full curve, poor fit].

`O=C1CC(c2ccco2)CC(O)=C1C=Nc1cc(Cl)ccc1Cl` (configuration not stated) was tested. Which Potency did it give?
The Potency was inconclusive: 39.8 µM [inhibitor, partial curve].

Which Potency does the source give for `O=C1C=CC2(C=C1)O[C@H](Cc1ccccc1)[C@@H](Cc1ccccc1)O2` here?
Its Potency is inconclusive: 15.8 µM [inhibitor, full curve].

`C[C@H](CO)N1C[C@H](C)[C@H](CN(C)Cc2cccc(F)c2)Oc2ncc(Br)cc2C1=O` was tested. Which “activity change, negative = inhibition” value did it give?
Its value is inactive: 0.27%.

Which Potency does the source give for `COCCCNC(=O)/C(C#N)=C/c1ccc(OCC(=O)O)c(OC)c1` here?
Its Potency is inconclusive: 15 µM [inhibitor, partial curve].

How did the Potency turn out when `O=S(=O)(NN1CCOCC1)c1cc(Cl)cc(Cl)c1O` was run?
The Potency was inconclusive: 25.1 µM [inhibitor, full curve].

With `O=C(O)c1ccccc1NS(=O)(=O)c1ccc(NN=Cc2ccccc2F)c([N+](=O)[O-])c1` as the compound, how does the Potency read?
Its Potency is active: 79.4 µM.

How did the Potency turn out when `C=CCOc1ccc(/C=C2\N=C(C)OC2=O)cc1OC` was run?
Its Potency is inconclusive: 5.62 µM [inhibitor, full curve, poor fit].

Which “activity change, negative = inhibition” value does the source give for `COc1ccc(S(=O)(=O)N2CCC(C(=O)N[C@@H](C)C(=O)NCc3cccnc3)CC2)cc1` here?
The value was inactive: 7.43%.

Which “activity change, negative = inhibition” value does the source give for `COc1ccc(CCNC(=O)c2cc(S(=O)(=O)N3CCOCC3)ccc2F)cc1` here?
Its value is inactive: -14.2%.

How did the “activity change, negative = inhibition” value turn out when `COc1ccc(Cc2c(C3CCCCC3)nc3c(C)cc(Br)cn23)c(C)c1` was run?
The value was inactive: -7.46%.

`CNC(=S)N/N=C/c1cc(C)n(-c2ccc(Cl)c(Cl)c2)c1C` was tested. Which Potency did it give?
The Potency was inconclusive: 25.1 µM [inhibitor, single point].

Which “activity change, negative = inhibition” value does the source give for `CC1CCN(CCOc2ccc(C(=O)c3ccccc3)cc2)CC1` here?
Its value is inactive: -19.2%.

Which Potency does the source give for `COc1ccc(NC(=O)CN2C(=O)NC(c3ccccc3)(c3ccccc3)C2=O)cc1` here?
Its Potency is inconclusive: 89.1 µM [inhibitor, single point].

`Cc1ccc(N2C(=O)c3cccc4c(N)ccc(c34)C2=O)c2cccnc12` was tested. Which Potency did it give?
The Potency was inconclusive: 15.8 µM [inhibitor, single point].

For `Cc1ccc(-c2ccc(/C=C3\SC(N4CCOCC4)=NC3=O)o2)cc1`, which “activity change, negative = inhibition” value is on record?
Its value is inactive: -9.82% [at 57.1 µM].

How did the Potency turn out when `CN(C)c1ccc(C=c2c3ccccc3n3c2cc(-c2ccc(Cl)cc2)[n+]3C)cc1` was run?
Its Potency is active: 28.2 µM.

For `COCc1cc(=O)oc2cc(NS(=O)(=O)c3ccc(C)cc3)ccc12`, which Potency is on record?
The Potency was inconclusive: 3.55 µM [inhibitor, full curve].

How did the activity change, negative = inhibition turn out when `Cc1ccc(C(=O)N/N=C/c2c(O)ccc3ccccc23)cn1` was run?
Its activity change, negative = inhibition is inactive: -1.18% [at 11.6 µM].

Which Potency does the source give for `COc1cc(C2C(C#N)=C(N)OC3=C2C(=O)CCC3)c([N+](=O)[O-])cc1OC` (configuration not stated) here?
The Potency was inconclusive: 50.1 µM [inhibitor, partial curve].

With `O=C(NC1(C(F)(F)F)N=C(c2ccccc2)NC1=O)c1ccccc1` (configuration not stated) as the compound, how does the Potency read?
The Potency was inconclusive: 25.1 µM [inhibitor, single point].

How did the Potency turn out when `COc1cccc(C2CC(c3ccccc3)=NN2S(=O)(=O)c2ccc(C)cc2)c1OC` (configuration not stated) was run?
Its Potency is inconclusive: 56.2 µM [inhibitor, partial curve].

`COc1ccc(O)c(C(=O)C2c3ccccc3C(=O)N2c2ccc(C)cc2)c1` (configuration not stated) was tested. Which Potency did it give?
Its Potency is active: 50.1 µM.

Which Potency does the source give for `Cc1nnc(SCC(=O)N2N=C(c3ccc(Cl)cc3)CC2c2ccco2)[nH]c1=O` (configuration not stated) here?
Its Potency is inconclusive: 56.2 µM [inhibitor, partial curve].

`Cc1ccc(/C=N/NC(=O)C(C)Oc2ccccc2[N+](=O)[O-])s1` (configuration not stated) was tested. Which Potency did it give?
The Potency was inconclusive: 12.6 µM [inhibitor, partial curve].

How did the Potency turn out when `Cc1ccc(Nc2nc(N)nc(CSc3nc4ccccc4s3)n2)cc1` was run?
The Potency was inconclusive: 100 µM [inhibitor, partial curve].

How did the “activity change, negative = inhibition” value turn out when `CCCn1c(=O)c(C(=O)NCc2ccco2)c(O)c2ccccc21` was run?
Its value is inactive: 1.17%.

With `COC(=O)c1ccc(C(=O)O)nc1` as the compound, how does the Potency read?
The Potency was inconclusive: 17.8 µM [inhibitor, full curve].

With `COc1cccc(CN2C(=O)NC3(CCCCCC3)C2=O)c1` as the compound, how does the “activity change, negative = inhibition” value read?
Its value is inactive: -25.6%.

With `COc1ccccc1NC(=O)Nc1ccnn1C1CCCCC1` as the compound, how does the “activity change, negative = inhibition” value read?
Its value is inactive: 1.16%.

Which Potency does the source give for `Cc1ccc(NC(=O)CSc2nnc(N)s2)cc1S(=O)(=O)N1CCOCC1` here?
Its Potency is inconclusive: 35.5 µM [inhibitor, full curve, poor fit].

`CCOc1cc(/C=C(/C#N)C(=O)Nc2ccc(O)cc2)cc(Br)c1O` was tested. Which Potency did it give?
The Potency was inconclusive: 22.4 µM [inhibitor, partial curve].

`CCCn1c(SCC(=O)Nc2nc(-c3ccc(OC)cc3)cs2)nc2c1c(=O)n(C)c(=O)n2C` was tested. Which Potency did it give?
Its Potency is inconclusive: 39.8 µM [inhibitor, single point].

`Cc1cccc(C)c1NC(=O)CSc1nnc(-c2ccco2)c(-c2ccco2)n1` was tested. Which Potency did it give?
The Potency was active: 35.5 µM.

With `C=CCN(CC=C)c1nc2ccccc2nc1C(C#N)C(=O)OC(C)C` (configuration not stated) as the compound, how does the activity change, negative = inhibition read?
Its activity change, negative = inhibition is inconclusive: -40.1% [inhibitor] [at 57.1 µM].

With `O=C1C2C3C=CC(CC3)C2S(=O)(=O)C2C3C=CC(CC3)C12` (configuration not stated) as the compound, how does the “activity change, negative = inhibition” value read?
Its value is inactive: 6.52%.

`Cc1ccc(NC(=O)NN2CCN(C)CC2)cc1C` was tested. Which “activity change, negative = inhibition” value did it give?
Its value is inactive: 0.828%.

`O=C(O)c1ccc(CSc2nc(-c3ccccc3)cc(C(F)(F)F)n2)cc1` was tested. Which Potency did it give?
Its Potency is inconclusive: 11.2 µM [inhibitor, partial curve].
